Negatives hold for the conditions tested. At least one verdict rests on a figure or table, not on a statement of the authors. Where a protein sequence is shown, tags need not be part of it.
Molecular target: T1, N-ht-CRP (cAMP receptor protein) (Shewanella oneidensis MR-1) (UniProt Q8EJ49)
T1 sequence (looked up): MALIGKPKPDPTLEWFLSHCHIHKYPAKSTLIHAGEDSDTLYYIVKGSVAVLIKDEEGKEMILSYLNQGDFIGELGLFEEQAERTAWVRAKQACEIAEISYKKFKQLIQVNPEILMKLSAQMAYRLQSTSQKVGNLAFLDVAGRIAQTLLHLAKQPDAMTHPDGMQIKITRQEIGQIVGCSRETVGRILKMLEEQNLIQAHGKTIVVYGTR
Test: EMSA
Settings: no cAMP; 10 mM Tris-HCl pH 7.6, 0.5 mM EDTA, 100 mM KCl, 50 ug/mL BSA, 50 ug/mL poly(dI-dC), 50 uM cAMP, 10% glycerol, 2 nM probe, 0-200 ng CRP in 20 uL, on ice 30 min; recombinant protein; residues 1-211; protein details: N-terminal His tag (pET-28a(+), NdeI/BamHI); label: 5'-Cy3; probe letters rebuilt from the primers and the genome

“TCCACCTCACTATCTGTTGTTTTTTTGCTCTCAATTTGTTTTTCCCTTGTGGTTTAACTACCTCTTTAGAAATAGAAAGATCCAAGTCACACATTAGCAAAGGCTTAGAAGATTTTAACGGCATGTTGGGTTAGCCTTTCCTTGGGGAATTCTATTTCCAGCATCCACTTAAGTCGCTTCTAGTGATCAAATACACAGACATAGAATCTGTTGGCGCTAGAGCATAGCGGTTAAGCAATGCCAAACCTATGCAGGGAAAA (double strand) [PBmtrC1]”: no binding.

— PMC4417206
